Measured values as given in paper doi:10.1101/2020.11.15.383513.
These are yes or no findings as the source states them, for the method shown. In cells and extracts the contact can be indirect. Some binding calls cover weakened binding; strength is not graded here.

The chains behind the UniProt entries cited, without tags or fusion partners.
UniProt P29469: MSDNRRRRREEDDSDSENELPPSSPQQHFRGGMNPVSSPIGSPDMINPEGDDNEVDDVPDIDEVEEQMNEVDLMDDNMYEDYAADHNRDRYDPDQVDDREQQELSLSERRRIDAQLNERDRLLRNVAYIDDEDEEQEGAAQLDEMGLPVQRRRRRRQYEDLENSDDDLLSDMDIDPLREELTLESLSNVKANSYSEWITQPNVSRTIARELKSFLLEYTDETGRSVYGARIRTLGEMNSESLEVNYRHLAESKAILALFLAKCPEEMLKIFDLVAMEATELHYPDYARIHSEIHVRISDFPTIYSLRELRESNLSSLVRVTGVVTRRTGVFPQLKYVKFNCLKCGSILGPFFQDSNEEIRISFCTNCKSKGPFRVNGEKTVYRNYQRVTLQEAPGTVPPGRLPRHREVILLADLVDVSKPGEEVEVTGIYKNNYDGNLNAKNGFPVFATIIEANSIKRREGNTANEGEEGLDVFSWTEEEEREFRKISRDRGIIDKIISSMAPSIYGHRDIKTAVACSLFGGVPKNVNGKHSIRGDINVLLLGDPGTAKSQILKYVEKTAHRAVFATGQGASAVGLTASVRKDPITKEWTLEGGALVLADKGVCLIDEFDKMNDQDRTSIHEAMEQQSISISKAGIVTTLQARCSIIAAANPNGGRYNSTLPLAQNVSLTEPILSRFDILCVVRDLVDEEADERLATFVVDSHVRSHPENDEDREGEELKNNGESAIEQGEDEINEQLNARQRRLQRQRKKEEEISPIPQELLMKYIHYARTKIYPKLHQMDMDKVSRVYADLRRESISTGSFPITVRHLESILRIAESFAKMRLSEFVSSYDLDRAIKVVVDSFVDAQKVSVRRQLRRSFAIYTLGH

Biological target: actin (yeast, from total yeast cell extract) (S. cerevisiae (endogenous in yeast cell extract)) (UniProt P60010)
Experiment: pull-down

Row | binding | Molecule
1 | no binding | Mcm2 (from UniProt P29469 1-868)
2 | binds | Apn1 (enzyme, UniProt P22936 1-367) MPSTPSFVRSAVSKYKFGAHMSGAGGISNSVTNAFNTGCNSFAMFLKSPRKWVSPQYTQEEIDKFKKNCATYNYNPLTDVLPHGQYFINLANPDREKAEKSYESFMDDLNRCEQLGIGLYNLHPGSTLKGDHQLQLKQLASYLNKAIKETKFVKIVLENMAGTGNLVGSSLVDLKEVIGMIEDKSRIGVCIDTCHTFAAGYDISTTETFNNFWKEFNDVIGFKYLSAVHLNDSKAPLGANRDLHERLGQGYLGIDVFRMIAHSEYLQGIPIVLETPYENDEGYGNEIKLMEWLESKSESELLEDKEYKEKNDTLQKLGAKSRKEQLDKFEVKQKKRAGGTKRKKATAEPSDNDILSQMTKKRKTKKE
